Measured values as given in PMC9606368, “Membrane mediated phase separation of the bacterial nucleoid occlusion protein Noc” (Scientific Reports, 2022).
These are yes or no findings as the source states them, for the method shown.

Target: T1, nucleoid occlusion protein Noc (wild type) (B. subtilis) (UniProt P37524)
T1 sequence: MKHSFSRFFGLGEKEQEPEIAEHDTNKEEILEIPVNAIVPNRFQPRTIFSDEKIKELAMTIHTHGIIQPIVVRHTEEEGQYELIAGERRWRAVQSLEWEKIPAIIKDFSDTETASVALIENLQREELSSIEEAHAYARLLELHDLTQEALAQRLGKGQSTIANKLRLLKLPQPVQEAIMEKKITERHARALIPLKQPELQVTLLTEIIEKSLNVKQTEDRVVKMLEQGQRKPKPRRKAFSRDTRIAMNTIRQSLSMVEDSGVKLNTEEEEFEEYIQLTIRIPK
Assay: QCM-D; supported lipid bilayer on SiO2-coated quartz sensor; 150 µl of sample flown over at 0.1 ml/min; Noc with B. subtilis FtsZ compared to Noc alone; non-phase separated state; both purified

- binding: no binding
B1: B. subtilis FtsZ (protein)
chain: MLEFETNIDGLASIKVIGVGGGGNNAVNRMIENEVQGVEYIAVNTDAQALNLSKAEVKMQIGAKLTRGLGAGANPEVGKKAAEESKEQIEEALKGADMVFVTAGMGGGTGTGAAPVIAQIAKDLGALTVGVVTRPFTFEGRKRQLQAAGGISAMKEAVDTLIVIPNDRILEIVDKNTPMLEAFREADNVLRQGVQGISDLIATPGLINLDFADVKTIMSNKGSALMGIGIATGENRAAEAAKKAISSPLLEAAIDGAQGVLMNITGGTNLSLYEVQEAADIVASASDQDVNMIFGSVINENLKDEIVVTVIATGFIEQEKDVTKPQRPSLNQSIKTHNQSVPKREPKREEPQQQNTVSRHTSQPADDTLDIPTFLRNRNKRG
